“And” between values parts separate entries of the source, which are not always exact repeats. Equal entries are not always repeated. Structures can show the parent of a compound that is named as a salt. ± gives the standard deviation of the averaged measurements. Some of the results follow. Baselines shift from plate to plate; read single values as rough.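 Culture-activated primary human stellate myofibroblasts, where regained lipid droplets signal inactivation. Value: share of Hoechst-counted cells above a per-plate Bodipy cutoff, in duplicate wells, with DMSO negative and nortriptyline positive controls on each plate. Hits: a control-normalized score above the plate's top-tenth-percentile nortriptyline wells, or one of a plate's three best wells. Final well concentrations are not given.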

The record followed here is the supplement of paper PMC9135407.

The subject of this assay is primary human hepatic stellate cells (donor 1). The assay can be described thus: percent Bodipy-positive cells; higher = more lipid droplet accumulation. The conditions noted are these: 48 h.
The mark [1] stands for this setting: library stock concentration: 3.33 mM.
The mark [2] stands for this setting: library stock concentration: 10 mM.
Setting [3] is: library stock concentration: 1 mM.
[4] abbreviates: library stock concentration: 80 uM.
[5] abbreviates: library stock concentration: 400 uM.
Setting [6] is: library stock concentration: 2 mM.

Regarding `CC(C)(O)CC(=O)NCCn1ccc2ncnc(Nc3ccc(Oc4cccc(C(F)(F)F)c4)c(Cl)c3)c21`, the “percent Bodipy-positive cells” value turned out to be 9.43 ± 3.8% under setting [1] and 47.41 ± 0.35% under setting [2].
The corresponding values for `C[C@H](Nc1ncnc2nc[nH]c12)c1cc2cccc(Cl)c2c(=O)n1-c1ccccc1` are 9.81 ± 0.95% and 27.3 ± 14%.
Regarding `CCCNC(C)(C)COC(=O)c1ccccc1` [Meprylcaine hydrochloride], the “percent Bodipy-positive cells” value was found to be 10.9 ± 2.9%.
Consider `CCCCCC(=O)CC[C@@H]1[C@@H](C/C=C\CCCC(=O)OC(C)C)[C@@H](O)C[C@H]1O`, for which, under setting [3], the “percent Bodipy-positive cells” value was determined as 10.3 ± 1.6%.
`CC(C)[C@H](NC(=O)OCc1ccccc1)C(=O)N[C@H](C=O)Cc1ccccc1`: the “percent Bodipy-positive cells” value under setting [2] came to 48.5 ± 5.9%.
`OC[C@H]1NC[C@@H](O)[C@@H]1O` [1,4-Dideoxy-1,4-imino-D-arabinitol]: the “percent Bodipy-positive cells” value under setting [2] is 39.1 ± 8.7%.
As to `O=S(=O)(c1cccc2cnccc12)N1CCCNCC1` [Fasudil (HA-1077) HCl], the “percent Bodipy-positive cells” value reads like this: under setting [1], 8.11 ± 3%; under setting [2], 26.9 ± 5.9%.
For the molecule `O=S(=O)(c1cccc2cnccc12)N1CCCNCC1`, the “percent Bodipy-positive cells” value under setting [2] was determined as 60.6 ± 7%.
On to `O=S(=O)(c1cccc2cnccc12)N1CCCNCC1` [Fasudil], for which, where the note is “library stock concentration: 6.9 mM”, the “percent Bodipy-positive cells” value was 7.48 ± 2%.
Turning to `O=S(=O)(c1cccc2cnccc12)N1CCCNCC1` [Fasudil hydrochloride], the “percent Bodipy-positive cells” value under setting [2] came to 12.3 ± 0.69%.
`CCCCC[C@H](O)/C=C/[C@H]1C(=O)C[C@H](O)[C@@H]1C/C=C\CCCC(=O)OC` [Prostaglandin D2 methyl ester]: the “percent Bodipy-positive cells” value under setting [3] stood at 17.1 ± 15%.
Consider `COc1cc2nc(N3CCCN(C)CC3)nc(NC3CCN(Cc4ccccc4)CC3)c2cc1OC`, for which the “percent Bodipy-positive cells” value is, setting by setting: under setting [4], 52.8 ± 7.5%; under setting [5], 73.1 ± 4.5%; under setting [6], 99.69 ± 0.44%; under setting [1], 99.151 ± 0.096%; under setting [2], 100%.
Take `CNCCCCOc1ccccc1Cc1ccccc1.Cl` [Bifemelane hydrochloride]: the “percent Bodipy-positive cells” value under setting [2] came out at 80.8 ± 0.92%.
As for `CN(C)CCOc1ccc(C(=C(CCCl)c2ccccc2)c2ccccc2)cc1.O=C(O)CC(O)(CC(=O)O)C(=O)O` [Toremifene Citrate], the “percent Bodipy-positive cells” value under setting [2] was 96.22 ± 0.33%.
In the case of `CCCCC[C@H](O)/C=C/[C@H]1C(=O)C[C@H](O)[C@@H]1C/C=C\CCCC(=O)NCCO` [Prostaglandin D2 Ethanolamide], the “percent Bodipy-positive cells” value under setting [3] came out at 14 ± 5.8%.
Regarding `CC(C)c1cnn2c(NCc3ccccc3)cc(NCCCCCCN)nc12`, the “percent Bodipy-positive cells” value by setting is: under setting [4], 7.05 ± 0.89%; under setting [5], 6.93 ± 0.91%; under setting [6], 11.6 ± 8.3%; under setting [1], 11.2 ± 3.1%; under setting [2], 66.6% and 91.3%.
As to `NC1CONC1=O` (racemic) [DL-Cycloserine], the “percent Bodipy-positive cells” value under setting [2] was determined as 33.9 ± 16%.
Same read-out and setting: in the case of `CCc1nn(CCCN2CCN(c3cccc(Cl)c3)CC2)c(=O)n1CCOc1ccccc1` it was 72.3 ± 6.5%.
Turning to `CCc1nn(CCCN2CCN(c3cccc(Cl)c3)CC2)c(=O)n1CCOc1ccccc1` [Nefazodone], under setting [2], the “percent Bodipy-positive cells” value amounted to 53.6 ± 18%.
On to `CCc1nn(CCCN2CCN(c3cccc(Cl)c3)CC2)c(=O)n1CCOc1ccccc1` [Nefazodone hydrochloride], for which the “percent Bodipy-positive cells” value under setting [2] was 34.2 ± 2.4%.
Take `CC(=O)Oc1ccc(C(c2ccc(OC(C)=O)cc2)c2ccccn2)cc1` [Bisacodyl]: the “percent Bodipy-positive cells” value was 23.2 ± 1.9%. Further, the “percent Bodipy-positive cells” value under setting [1] is 10.4 ± 1.9%. Besides, the “percent Bodipy-positive cells” value under setting [2] was 30% and 6.63%.
Take `CCOC(=O)CC(=O)N1CCSC1COc1ccccc1OC` (stereo unspecified) [Moguisteine]: the “percent Bodipy-positive cells” value runs as follows: under setting [1], 10.6 ± 4.2%; under setting [2], 17.5 ± 2.5%.
`CCOC(=O)CC(=O)N1CCSC1COc1ccccc1OC` (stereo unspecified): the “percent Bodipy-positive cells” value under setting [2] was found to be 32.9 ± 5.8%.
Regarding `N=c1nc(N2CCCCC2)cc(N)n1O` [Minoxidil], the “percent Bodipy-positive cells” value under setting [2] came to 33.5 ± 12%.
With `CCCCS(=N)(=O)CCC(N)C(=O)O` [L-Buthionine-sulfoximine], the “percent Bodipy-positive cells” value under setting [2] came out at 51.5 ± 6.9%.
`COc1cccc(OC)c1OCCNCC1CSc2ccccc2O1` (stereo unspecified) [Benoxathian hydrochloride]: under setting [2], the “percent Bodipy-positive cells” value is 75.7 ± 5.2%.
For the molecule `O=C(CSc1nc2c(c(=O)n1-c1ccccc1)SCC2)Nc1ccc(-c2ccccc2)cn1`, the “percent Bodipy-positive cells” value runs as follows: under setting [1], 30.2 ± 3.7%; under setting [2], 32.8 ± 3%.
Consider `C[C@@H]1CN(c2c(F)c(F)c3c(=O)c(C(=O)O)cn(C4CC4)c3c2F)C[C@H](C)N1`, for which the “percent Bodipy-positive cells” value under setting [2] was determined as 29.8 ± 6%.
`CCC(C)(C)C(=O)O[C@H]1C[C@@H](C)C=C2C=C[C@H](C)[C@H](CC[C@@H]3C[C@@H](O)CC(=O)O3)[C@H]21` [Simvastatin]: the “percent Bodipy-positive cells” value was determined as 31.4 ± 0.67%. For the same molecule, the “percent Bodipy-positive cells” value under setting [1] was found to be 29.1 ± 4.2%.
As for `CCCc1nn(C)c2c(=O)[nH]c(-c3cc(S(=O)(=O)N4CCN(C)CC4)ccc3OCC)nc12` [Sildenafil Citrate], the “percent Bodipy-positive cells” value under setting [1] is 11.9 ± 0.21% and the “percent Bodipy-positive cells” value under setting [2] worked out at 23.1 ± 4.8%.
With `CCCc1nn(C)c2c(=O)[nH]c(-c3cc(S(=O)(=O)N4CCN(C)CC4)ccc3OCC)nc12` [Sildenafil citrate salt], the “percent Bodipy-positive cells” value under setting [2] worked out at 74.8 ± 2.8%.
In the case of `CCCc1nn(C)c2c(=O)[nH]c(-c3cc(S(=O)(=O)N4CCN(C)CC4)ccc3OCC)nc12` [Sildenafil], the “percent Bodipy-positive cells” value under setting [2] is 38.3 ± 8.2%.
As to `O=C(O)CCCCCC[C@@H]1[C@@H](CC[C@@H](O)CCc2cccc(C(F)(F)F)c2)[C@H](O)C[C@@H]1O`, under setting [3], the “percent Bodipy-positive cells” value came out at 12.6 ± 0.69%.
Take `CN(C[C@@H]1COCCO1)S(=O)(=O)Nc1ccc2ccc3ncc(-c4cnn(C)c4)cc3c(=O)c2c1`: the “percent Bodipy-positive cells” value was 10.6 ± 4.1% under setting [1] and 16.9 ± 4.7% under setting [2].
As to `CC(O)(CC(=O)O)CC(=O)O`, the “percent Bodipy-positive cells” value under setting [2] came to 35.4 ± 6%.
For `NNC(=O)c1ccncc1.Nc1ccc(C(=O)O)c(O)c1` [Pasiniazid], the “percent Bodipy-positive cells” value under setting [2] came out at 38 ± 4.5%.
With `Cc1ccc(NC(=O)c2ccc(CN3CCN(C)CC3)cc2)cc1Nc1nc(-c2cccnc2)cs1` [Masitinib], the “percent Bodipy-positive cells” value under setting [2] is 98.78 ± 0.52%.
In the case of `O=[N+]([O-])c1ccc(O)c2ncccc12`, the “percent Bodipy-positive cells” value under setting [2] came to 53.3 ± 17%.
With `N#CC[C@H](C1CCCC1)n1cc(-c2ncnc3[nH]ccc23)cn1`, the “percent Bodipy-positive cells” value is, setting by setting: under setting [4], 19.3 ± 2.5%; under setting [5], 12.4 ± 3.9%; under setting [6], 10 ± 3.5%; under setting [1], 17.2% and 8.81%; under setting [2], 16.1% and 12% and 5.56%.
